## Library screening results

The chains behind the UniProt entries cited, without tags or fusion partners.
UniProt E9BF75, entry or part of it: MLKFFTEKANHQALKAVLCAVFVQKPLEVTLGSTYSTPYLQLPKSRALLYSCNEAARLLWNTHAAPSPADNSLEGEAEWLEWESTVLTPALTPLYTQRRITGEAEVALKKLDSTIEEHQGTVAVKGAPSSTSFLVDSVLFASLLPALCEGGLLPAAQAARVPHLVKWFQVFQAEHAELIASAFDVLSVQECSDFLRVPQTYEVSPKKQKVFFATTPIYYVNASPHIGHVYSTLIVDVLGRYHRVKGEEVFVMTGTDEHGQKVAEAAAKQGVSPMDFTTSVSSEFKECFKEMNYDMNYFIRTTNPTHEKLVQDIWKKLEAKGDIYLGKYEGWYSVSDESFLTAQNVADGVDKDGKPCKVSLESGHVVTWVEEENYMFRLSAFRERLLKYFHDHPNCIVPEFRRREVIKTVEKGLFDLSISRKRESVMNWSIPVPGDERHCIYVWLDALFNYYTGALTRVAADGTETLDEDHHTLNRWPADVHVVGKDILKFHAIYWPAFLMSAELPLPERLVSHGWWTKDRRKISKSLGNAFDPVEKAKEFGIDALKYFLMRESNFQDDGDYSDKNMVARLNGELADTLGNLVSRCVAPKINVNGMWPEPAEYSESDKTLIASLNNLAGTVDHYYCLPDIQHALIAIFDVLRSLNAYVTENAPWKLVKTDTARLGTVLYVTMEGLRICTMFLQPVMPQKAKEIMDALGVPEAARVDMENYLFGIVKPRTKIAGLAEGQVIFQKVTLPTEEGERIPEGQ

The values are deposited in ChEMBL (CHEMBL3988442, “University of Dundee, Small-Polar-MMV Screening Library” (2021)).

Mtb heat-shock: 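Assay on Mycobacterium tuberculosis, filed only as a heat shock assay from Cornell; the read-out is not stated. The concentration is filed as 10 mM, unlikely as a test dose, so the dose is not known. Higher reads as stronger inhibition (inferred: compounds with an IC50 in retests scored well above the rest). Of about 69,000 compounds tested this way, about 930 (1.4%) reached 50% or more in at least one test.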
LdMetRS: 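Methionyl-tRNA synthetase (putative), Leishmania donovani (UniProt E9BF75). Primary screen of methionyl-tRNA synthetase; the read-out is not stated. The test concentration is not given. The values are filed as inhibition. Size under these conditions: about 68,000 compounds, about 24 of them at 50% or above in at least one test.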
Mtb growth Cornell: 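Whole-cell assay for inhibitors of Mycobacterium tuberculosis growth, labelled Cornell in the record; the read-out is not stated. The concentration is filed as 10 mM, unlikely as a test dose, so the dose is not known. Higher means stronger inhibition (inferred from two other growth screens of the library). About 53,000 compounds were tested under these conditions; 1.7% (about 900) showed 50% or more at least once.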

Results are percentages, as filed.
How 0% and 100% were set is not recorded. Most values in the screen are low, and negative values occur.
The compounds are a random part of those screened.
A dash means the value is not listed here; it may have been measured.

Compound,Mtb heat-shock,LdMetRS,Mtb growth Cornell
CC(=O)Nc1cccc(-c2ccccc2CCN)c1,31.93,9.214,30.86
CC(C)CNC(=O)c1cn(C)c(=O)c2ccccc12,3.819,18.87,9.772
[H][C@]12CN(c3cnccn3)C[C@@]1(C(=O)O)CN(C1CCCC1)C2,5.844,-,-15.52
Cc1ccc(NC2CCN(C(=O)c3c(C)nn(C)c3Cl)CC2)nn1,2.005,16.32,-
CN(C)C(=O)N1C[C@@H]2CC[C@H](C1)N(S(=O)(=O)c1cccnc1)C2,-,13.45,-
CC(C)S(=O)(=O)N1CCC(c2cc3n(n2)[C@@H](C(F)(F)F)C[C@@H](C)N3)CC1,5.915,5.825,-8.359
Cc1ccc(CNCc2ccc(N3CCC(CO)CC3)nc2)c(C)c1,-,21.77,-
COC(=O)c1ccc(C(=O)NS(=O)(=O)c2cncc(Br)c2)cc1,-1.104,6.159,-
COCCC(=O)N1CCC2(COCc3cnc(NCC4CC4)nc32)C1 (centres undefined),-38.05,15,-19.93
O=C(c1ccnnc1)N1CCN(Cc2ccncc2)c2ncccc2C1,-,17.26,-
O=C(c1cccnc1-n1cncn1)N1CCN(CC(F)(F)F)CC1,-23.41,9.239,-1.899
CC(C)N(C)C(=O)c1ccc(CNc2cncc(Cl)n2)cc1,-21.83,13.77,-14.11
COC(=O)CNC(=O)c1scnc1C,7.277,11.49,11.4
Cc1ccc(CN2CC(O)CN(C(=O)C3CC3)CC2=O)cc1 (centres undefined),32.49,15.62,13.92
CCN(CC)C(=O)c1cnc(Sc2nccn2C)c(Cl)c1,-12.4,1.229,1.941
CC(C)(C)c1cn(CC2CCCN(c3cnc4ccccc4n3)C2)nn1 (centres undefined),12.16,13.59,21.75
O[C@@H]1C[C@@](CNCc2ccc(F)cc2)(COc2cccnc2)C[C@@H]1O,-,-2.373,-
CCc1ccc(C(=O)O)cc1S(=O)(=O)N(C)c1cccc(C)c1,-7.227,6.62,14.71
O=C1COC2(CCN(Cc3ccoc3)CC2)CN1CCn1cccn1,-,8.711,-
Cl.O=C(c1cccnc1N1CCN(CCO)CC1)N1CCCC1,2.64,-,-
CS(=O)(=O)N1Cc2nccn2CC(CNC(=O)c2cccnc2)C1 (centres undefined),-,10.87,-
[H][C@@]12CS(=O)(=O)C[C@]1([H])N(Cc1cnn(-c3ccc(F)cc3)c1)CCN2C,-15.81,-,-23.19
COc1ccc(-c2cc(C3CCNCC3)ccn2)cc1,-,16.46,-
CN1CCN(C(=O)[C@@H]2CCO[C@@H]3CCN(c4ncccn4)C[C@@H]32)CC1,-,17.99,-
Cc1ncc(CN2CCC(c3nc4cc(Cl)ccc4o3)CC2)s1,-15.08,8.629,-
CCOc1ccc(C2CC(=O)Nc3c2c(=O)nc2sccn32)cc1 (centres undefined),3.612,11.2,-
N#Cc1cn(C2CC2)c(=O)n(CC(O)c2ccc(F)cc2)c1=O (centres undefined),-14.5,15.26,-
Cc1noc(C)c1CN1CCC2(CC1)CN(c1ccccn1)CCO2.O=C(O)C(F)(F)F.O=C(O)C(F)(F)F,-22.26,-,-0.7972
CSCCC(NC(N)=O)C(=O)NCc1cnn(-c2ccccc2)c1 (centres undefined),-152.8,18.43,-
Cc1nc(NCCC23CCCN2CCC3)cc(C2CCNCC2)n1,-9.002,10.47,2.741
CCOCc1nc2c(c(N3CC=CC3)n1)CCN(C1CCOCC1)CC2,10.63,16.75,15.59
Cc1cnn(C2CCCN(C(=O)CCc3cscn3)C2)c1 (centres undefined),-23.55,18.89,17.28
Cn1ccc(C(=O)Nc2nc(-c3ccc(Cl)cc3)n[nH]2)cc1=O,-16.18,5.155,-
OCC1CCCCN1CCn1ccnc1-c1ccc2c(c1)OCCO2 (centres undefined),31.92,7.229,15.51
COCc1ncn2c1CN(S(=O)(=O)c1ccc(C)cc1)CC2,-26.14,5.914,29.85
CCCc1nc(CN2CCOC(Cn3cccn3)C2)no1 (centres undefined),-3.128,12.05,-
O=C(O)C(F)(F)F.c1cnc(NCc2nnn3c2CN(CC2CC2)CCC3)nc1,6.177,-,17.55
O=C(NCc1ccccc1OCC1CC1)C1CCOC1 (centres undefined),-11.75,15.25,0.2273
COc1ccc2c(c1)OC1(CCN(Cc3cccc(C)c3)CC1)CC2=O,14.18,3.611,19.68
COCC(O)CN(C)C(=O)NC1CCN(S(C)(=O)=O)CC1 (centres undefined),7.293,13.1,-
COCCc1noc(-c2cn(Cc3ccc(OC)cc3)nn2)n1,18.79,13.07,-8.143
CC(C)CCN1CCN(Cc2nc(C(C)C)no2)CC1,12.21,9.253,-
c1cc(CN2CCO[C@@H]3CNC[C@@H]32)cs1,-,15.68,-
CCOCC(=O)N1CC[C@H]2[C@@H]1CCC(=O)N2Cc1csc(C)n1,-,12.38,-
CC(C)c1nnsc1CN1CCc2[nH]nc(-c3ccc(F)c(F)c3)c2C1,8.574,-0.7371,37.11
O=C(O)C(F)(F)F.O=C(O)C(F)(F)F.O[C@H]1CCN(Cc2ccoc2)[C@H]1Cc1cccnc1,-20.89,-,0.01807
Cc1cnn(Cc2cc(F)ccc2F)c1NC(=O)C1CCOCC1,-4.536,11.14,-14.87
c1ccc(-c2cc(NCCCC3CCOC3)n3nccc3n2)cc1 (centres undefined),0.7642,16.53,-
Cn1cc(CCNCC2CNc3ccnn3C2)cn1 (centres undefined),-15.9,9.669,-
O=S(=O)(NCC1(O)CCOCC1)c1ccccc1Br,1.174,13.67,-7.328
Cc1ccc(C(=O)NS(=O)(=O)c2ccc3c(c2)OCCCO3)o1,2.049,12.63,-1.542
CCCC(=O)N(CCCN1CCOCC1)c1nc2c(C)ccc(Cl)c2s1,-,17.99,-
Cc1nnc(-c2cccc(C#N)c2)n1C1CCN(C(C)C)C1=O (centres undefined),-30.88,15.48,5.61
Cc1nc(C(=O)N(C)CC(F)(F)C(F)(F)F)c2ccccn12,-7.19,20.36,-26.9
NC(=O)CC1CCN(C(=O)NCc2ccc(-c3ccn[nH]3)cc2)CC1,-14.68,12.01,-15.32
CCn1ncc(S(=O)(=O)N[C@@H]2CCC[C@@H](n3ccnc3)[C@@H]2O)c1C,-0.2783,18.69,9.855
CS(=O)(=O)CCNC(=O)Nc1ccc(Cl)cc1-n1cccc1,-2.06,18.78,-
CNc1ccc(CC2CCCN(C(=O)c3scnc3C)C2)nn1 (centres undefined),-16.81,6.353,-
Cn1ccnc(Nc2ccc3c(c2)CCN3C(=O)c2cccnc2)c1=O,1.128,11.72,-56.63
Cc1cn2c(CN(C)C(=O)c3cccnc3O)c(C)nc2s1,-0.1172,0.9926,-39.24
Cc1ccc(F)c(C(=O)N2CCC(Nc3ccc(C)nn3)CC2)c1,-6.727,23.21,11.57
Cc1cnc(N2C[C@H]3CCN(CC4CC4)C[C@@H]3C2)nc1,-,2.256,-
O=C(CSC1=NS(=O)(=O)c2cc(F)ccc2N1)Nc1ccc(Cl)c(Cl)c1,-16.46,8.168,-
Cc1ccoc1C(=O)N1CCc2ccc(=O)n(CCN(C)C)c2CC1.O=C(O)C(F)(F)F,-10.47,-,-
Cc1csc(N2CCCN(C(=O)c3c(C)oc(C)c3C)CC2)n1,-1.023,19.58,-
COCCN1C[C@@H](C)[C@@]2(COCCN(C(=O)c3cccs3)C2)C1,-,8.795,-
Cc1cc(C(=O)N2CCCC(n3cncn3)C2)no1 (centres undefined),4.297,11.72,-
CN(Cc1ccc(C(=O)NCC2COCCO2)c(=O)[nH]1)CC(C)(C)C (centres undefined),-37.33,8.065,-10.72

5 of the entries, repeated:

Compound	Mtb heat-shock	LdMetRS	Mtb growth Cornell
O=C(O)C(F)(F)F.O=C(O)C(F)(F)F.O[C@H]1CCN(Cc2ccoc2)[C@H]1Cc1cccnc1	-20.89	-	0.01807
NC(=O)CC1CCN(C(=O)NCc2ccc(-c3ccn[nH]3)cc2)CC1	-14.68	12.01	-15.32
[H][C@@]12CS(=O)(=O)C[C@]1([H])N(Cc1cnn(-c3ccc(F)cc3)c1)CCN2C	-15.81	-	-23.19
COCC(O)CN(C)C(=O)NC1CCN(S(C)(=O)=O)CC1 (centres undefined)	7.293	13.1	-
Cc1cnn(Cc2cc(F)ccc2F)c1NC(=O)C1CCOCC1	-4.536	11.14	-14.87